Results deposited as PubChem BioAssay AID1259425 (University of Nebraska Medical Center, 2018)

Aim: 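Find knockdowns that reproduce the gene expression pattern seen when KSR1 is lost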 (primary screen)
System: HCT116 human colon cancer cells
Knock-down reagent: siRNA pool against human genes, 50 nM siRNA
Detection: 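mRNA of six signature genes measured together by branched-DNA assay after 50 nM siRNA pool, blank removed, divided by geometric mean of two housekeeping genes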
Reading the numbers: BNIP3L mRNA: higher = more BNIP3L transcript after knockdown; NDRG1 mRNA: higher = more NDRG1 transcript after knockdown; BNIP3 mRNA: higher = more BNIP3 transcript after knockdown
The whole screen tested about 14,000 reagents; this is a part drawn at random. Further read-outs or replicates are left out here. Not stated in the record: the time to read-out.

no.	Target gene	BNIP3L mRNA, set 1	NDRG1 mRNA, set 1	BNIP3 mRNA, set 1
1	PDCD10 (programmed cell death 10)	0.0802	0.119	0.355
2	ARHGEF10L (Rho guanine nucleotide exchange factor 10 like)	0.104	0.324	0.298
3	SMAD7 (SMAD family member 7)	0.0902	0.0664	0.268
4	BEST1 (bestrophin 1)	0.168	0.473	0.364
5	RXRA (retinoid X receptor alpha)	0.125	0.129	0.257
6	COX15 (cytochrome c oxidase assembly factor COX15)	0.013	0.0378	0.194
7	NGRN (neugrin, neurite outgrowth associated)	0.102	0.224	0.41
8	WDR24 (WD repeat domain 24)	0.204	0.221	0.219
9	GALNT9 (polypeptide N-acetylgalactosaminyltransferase 9)	0.0737	0.17	0.391
10	CYP2B6 (cytochrome P450 family 2 subfamily B member 6)	0.0854	0.131	0.311
11	PEX7 (peroxisomal biogenesis factor 7)	0.0752	0.0884	0.236
12	KCNIP2 (potassium voltage-gated channel interacting protein 2)	0.0799	0.285	0.118
13	GNG13 (G protein subunit gamma 13)	0.108	0.143	0.276
14	MIP (major intrinsic protein of lens fiber)	0.115	0.184	0.286
15	SLC13A1	0.0999	0.14	0.288
16	TMEM245 (transmembrane protein 245)	0.149	0.328	0.471
17	SEPTIN2 (septin 2)	0.17	0.318	0.307
18	NNT (nicotinamide nucleotide transhydrogenase)	0.0497	0.489	0.223
19	DSCAML1 (DS cell adhesion molecule like 1)	0.153	0.262	0.315
20	CD33 (CD33 molecule)	0.117	0.284	0.15

Limited to “BNIP3L mRNA, set 1” (2 entries from above):
SEPTIN2 (septin 2) = 0.17
NNT (nicotinamide nucleotide transhydrogenase) = 0.0497
